Source: PMC4255804
These are yes or no findings as the source states them, for the method shown. In cells and extracts the contact can be indirect. Some entries that bind do so weakly or less than the wild type. Values belong to the molecule of their own block, whether it stands above or below them.

The chains behind the UniProt entries cited, without tags or fusion partners.
UniProt Q61056: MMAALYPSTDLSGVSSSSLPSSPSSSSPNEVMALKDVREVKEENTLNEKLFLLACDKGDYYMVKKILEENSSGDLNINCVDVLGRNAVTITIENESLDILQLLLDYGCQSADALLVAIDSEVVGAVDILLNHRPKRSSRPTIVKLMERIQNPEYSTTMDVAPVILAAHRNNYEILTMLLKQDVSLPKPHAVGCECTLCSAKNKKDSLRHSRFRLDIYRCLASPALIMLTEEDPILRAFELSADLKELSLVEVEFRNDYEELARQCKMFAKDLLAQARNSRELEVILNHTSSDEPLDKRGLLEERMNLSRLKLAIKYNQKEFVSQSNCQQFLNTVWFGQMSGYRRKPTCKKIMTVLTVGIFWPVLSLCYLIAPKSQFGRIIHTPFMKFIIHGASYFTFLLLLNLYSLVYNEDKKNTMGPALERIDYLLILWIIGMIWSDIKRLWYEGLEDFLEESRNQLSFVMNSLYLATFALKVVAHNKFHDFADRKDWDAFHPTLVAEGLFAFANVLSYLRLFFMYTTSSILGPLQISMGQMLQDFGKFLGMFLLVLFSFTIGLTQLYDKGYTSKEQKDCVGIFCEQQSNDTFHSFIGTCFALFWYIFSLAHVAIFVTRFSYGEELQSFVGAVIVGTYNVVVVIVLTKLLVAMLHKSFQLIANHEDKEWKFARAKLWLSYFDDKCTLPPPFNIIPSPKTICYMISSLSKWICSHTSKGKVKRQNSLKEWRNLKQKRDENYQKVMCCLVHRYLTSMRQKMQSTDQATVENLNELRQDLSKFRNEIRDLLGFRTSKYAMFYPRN
UniProt Q9QX01: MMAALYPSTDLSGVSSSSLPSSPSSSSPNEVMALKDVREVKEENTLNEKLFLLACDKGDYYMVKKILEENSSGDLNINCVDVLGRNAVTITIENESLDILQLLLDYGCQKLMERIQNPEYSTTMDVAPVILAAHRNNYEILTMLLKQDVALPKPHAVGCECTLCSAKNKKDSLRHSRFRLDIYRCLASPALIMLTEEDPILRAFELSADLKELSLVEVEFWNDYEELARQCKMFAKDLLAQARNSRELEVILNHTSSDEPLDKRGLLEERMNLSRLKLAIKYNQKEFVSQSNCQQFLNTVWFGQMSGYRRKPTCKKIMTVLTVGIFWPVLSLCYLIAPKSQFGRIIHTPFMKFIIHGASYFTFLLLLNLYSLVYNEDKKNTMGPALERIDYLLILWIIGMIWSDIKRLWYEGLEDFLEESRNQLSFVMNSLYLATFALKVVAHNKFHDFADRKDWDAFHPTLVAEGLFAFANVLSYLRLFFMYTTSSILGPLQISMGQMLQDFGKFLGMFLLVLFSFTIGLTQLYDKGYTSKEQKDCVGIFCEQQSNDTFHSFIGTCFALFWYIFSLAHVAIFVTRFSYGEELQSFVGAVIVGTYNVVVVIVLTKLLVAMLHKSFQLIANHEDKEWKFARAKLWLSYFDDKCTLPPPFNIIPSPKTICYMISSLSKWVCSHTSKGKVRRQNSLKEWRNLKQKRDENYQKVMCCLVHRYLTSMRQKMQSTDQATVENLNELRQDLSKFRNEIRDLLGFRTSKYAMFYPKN

Tests used:
[1] = target: Human Caveolin-1 (Cav1) stably overexpressed in IEC-6 cells (IEC-Cav1) (human) (UniProt Q03135); assay: co-IP; whole-cell lysates in RIPA buffer (500 ug) of IEC-6, IEC-Cdx2L1, IEC-TRPC1 (also after siCav1 or C-siRNA), IEC-Cav1 and Null cells; IP with anti-Cav1 or anti-TRPC1 antibody (4 ug), protein A/G-PLUS-Agarose, 4 C; western blot for TRPC1 or Cav1
[2] = target: T1, Caveolin-1 (Cav1), endogenous in rat intestinal epithelial cells (rat (endogenous in IEC-6)) (UniProt P41350); assay: as above
T1 sequence: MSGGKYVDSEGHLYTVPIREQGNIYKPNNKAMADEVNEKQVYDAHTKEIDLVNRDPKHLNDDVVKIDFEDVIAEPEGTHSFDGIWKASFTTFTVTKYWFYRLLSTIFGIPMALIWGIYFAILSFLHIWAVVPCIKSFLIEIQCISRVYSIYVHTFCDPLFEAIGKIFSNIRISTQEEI

[3] = target: Canonical transient receptor potential-1 (TRPC1), mouse gastric mucosa (mouse (endogenous in gastric mucosa)) (UniProt Q61056); assay: co-IP; gastric mucosal protein extracts (500 ug) of control littermate mice 0, 3, 6 and 16 h after intragastric 3.4 mol/L NaCl; IP with anti-TRPC1 antibody (4 ug), protein A/G-PLUS-Agarose, 4 C; western blot for Cav1 and TRPC1
[4] = target: Canonical transient receptor potential-1 (TRPC1), endogenous in rat intestinal epithelial cells (rat (endogenous in IEC-6)) (UniProt Q9QX01); assay: co-IP; whole-cell lysates in RIPA buffer (500 ug) of IEC-6, IEC-Cdx2L1, IEC-TRPC1 (also after siCav1 or C-siRNA), IEC-Cav1 and Null cells; IP with anti-Cav1 or anti-TRPC1 antibody (4 ug), protein A/G-PLUS-Agarose, 4 C; western blot for TRPC1 or Cav1

binding [1]: binds
binding [2]: binds
Molecule: Canonical transient receptor potential-1 (TRPC1), endogenous in rat intestinal epithelial cells (from UniProt Q9QX01 1-759)

binding [3]: binds
B1: Caveolin-1 (Cav1), mouse gastric mucosa (protein, UniProt P49817 1-178)
chain: MSGGKYVDSEGHLYTVPIREQGNIYKPNNKAMADEVTEKQVYDAHTKEIDLVNRDPKHLNDDVVKIDFEDVIAEPEGTHSFDGIWKASFTTFTVTKYWFYRLLSTIFGIPMALIWGIYFAILSFLHIWAVVPCIKSFLIEIQCISRVYSIYVHTFCDPLFEAIGKIFSNIRISTQKEI

binding [4]: binds
B2: Caveolin-1 (Cav1), endogenous in rat intestinal epithelial cells (protein, UniProt P41350 1-178)
chain: MSGGKYVDSEGHLYTVPIREQGNIYKPNNKAMADEVNEKQVYDAHTKEIDLVNRDPKHLNDDVVKIDFEDVIAEPEGTHSFDGIWKASFTTFTVTKYWFYRLLSTIFGIPMALIWGIYFAILSFLHIWAVVPCIKSFLIEIQCISRVYSIYVHTFCDPLFEAIGKIFSNIRISTQEEI
